This note sets out measurements from PubChem BioAssay AID330 (DTP/NCI, 2004).

The list shows only some results of the screen, not a fair sample: it is rich in T/C values a quarter to a half above the control, in often repeated tests (any T/C) and in doses without a T/C. Further doses and runs are listed elsewhere. T/C: endpoint of the treated group in % of that of the vehicle group. Some entries give survivors of the animals treated and no T/C: the source holds a T/C of zero for them, seemingly a mark for toxic or unscored doses. Some survivor counts are full or nearly so, which does not show that the dose was tolerated: the source hardly ever lists a survival T/C far under the control, and the zero likely stands for such cases as well. Survivors were counted at the toxicity check, usually on the fifth day, unless a day is given; later deaths do not show. Schedule codes are those of the source, read here as Q, the interval in days (D) or hours (H), X, the number of doses. Some entries hold several experiments; the results are listed from low to high. Brackets with × say how often a value occurs here. Where survival is the endpoint, this PubChem deposit counts one and a half times the control or more as active, and values a quarter to a half above the control carry no call in these data; other NCI protocols may use other cut-offs.

The assay relates to P388 leukemia ip, CD2F1 mice, survival T/C. In words: NCI In Vivo Anticancer Drug Screen. Data for tumor model P388 Leukemia (intraperitoneal) in CD2F1 (CDF1) mice. Particulars: T/C endpoint: median survival time, higher T/C = longer survival.
The mark [1] stands for this setting: dose: 100.0 mg/kg/injection, schedule: Q04DX003 (ip), vehicle: saline with Tween-80.
The mark [2] stands for this setting: dose: 120.0 mg/kg/injection, schedule: Q01DX005 (ip), vehicle: saline with Tween-80.
Setting [3] is: dose: 240.0 mg/kg/injection, schedule: Q01DX005 (ip), vehicle: saline with Tween-80.
Setting [4] is: dose: 200.0 mg/kg/injection, schedule: Q01DX009 (ip), vehicle: gum acacia.

On to `CC(=O)OCC(=O)[C@@]1(O)CC[C@H]2[C@@H]3CCC4=CC(=O)CC[C@]4(C)[C@@]3(Cl)[C@@H](O)C[C@@]21C`, for which the T/C by setting is: under setting [1], 127 % of control; (dose: 200.0 mg/kg/injection, schedule: Q04DX003 (ip), vehicle: saline with Tween-80) 140 % of control.

As to `Cc1cccc2nccn12`, the survivor count is, setting by setting: (dose: 50.0 mg/kg/injection, schedule: Q01DX009 (ip), vehicle: saline with Tween-80) 6 of 6; (dose: 100.0 mg/kg/injection, schedule: Q01DX009 (ip), vehicle: saline with Tween-80) 0 of 6; (dose: 200.0 mg/kg/injection, schedule: Q01DX009 (ip), vehicle: saline with Tween-80) 0 of 6.

On to `O=C1c2ccccc2C(=O)c2c1cn1c2Cc2ccccc2C1`, for which the survivor count reads like this: (dose: 180.0 mg/kg/injection, schedule: Q01DX005 (ip), vehicle: Klucel (hydroxypropylcellulose) (HPC)) 1 of 6; (dose: 240.0 mg/kg/injection, schedule: Q01DX005 (ip), vehicle: Klucel (hydroxypropylcellulose) (HPC)) 0 of 6.

Regarding `CNC(=O)OCc1c(COC(=O)NC)c(-c2ccc(Cl)c(Cl)c2)n2c1Cc1ccccc1C2`, the T/C (dose: 12.5 mg/kg/injection, schedule: Q01DX009 (ip), vehicle: distilled water + Tween-80) is 138 and 147 % of control.

Turning to `O=C1C=CC2C=CC1C=C2`, the survivor count runs as follows: under setting [2], 3 of 6; under setting [3], 0 of 6.

Regarding `CCCCCCCCCCCCCCC(C(=O)[O-])[n+]1ccccc1` (stereo unspecified), the survivor count (dose: 60.0 mg/kg/injection, schedule: Q01DX005 (ip), vehicle: saline) was 5 of 6; the survivor count (dose: 120.0 mg/kg/injection, schedule: Q01DX005 (ip), vehicle: saline) is given as 2 of 6; the survivor count (dose: 240.0 mg/kg/injection, schedule: Q01DX005 (ip), vehicle: saline) is on record as 0 of 6.

For the compound `CCCCOc1ccc2nc(C)cc(N=[N+]=[N-])c2c1`, the survivor count under setting [2] was 6 of 6.

On to `Nc1ccc(/C=C\c2nccc3ccccc23)cc1`, for which the survivor count (dose: 6.25 mg/kg/injection, schedule: Q01DX009 (ip), vehicle: saline with Tween-80) is listed as 6 of 6 and the survivor count (dose: 12.5 mg/kg/injection, schedule: Q01DX009 (ip), vehicle: saline with Tween-80) is given as 6 of 6.

Turning to `O=C(CNC(=O)Nc1ccc(Cl)c(Cl)c1)N/N=C/c1cccc(F)c1`, the survivor count runs as follows: (dose: 60.0 mg/kg/injection, schedule: Q01DX005 (ip), vehicle: saline with Tween-80) 6 of 6; under setting [2], 6 of 6; under setting [3], 6 of 6.

Turning to `O=C(O)CCC(=O)OCN1C(=O)C2C3C=CC(C2C1=O)C1C2C(=O)N(COC(=O)CCC(=O)O)C(=O)C2C31` (stereo unspecified), the survivor count runs as follows: (dose: 100.0 mg/kg/injection, schedule: Q01DX009 (ip), vehicle: water) 5 of 6; (dose: 200.0 mg/kg/injection, schedule: Q01DX009 (ip), vehicle: water) 2 of 6 and 4 of 6.

For `Cc1ccc(/C=C/C(=O)C(CN(C)C)CN(C)C)cc1C`, the survivor count was 0 of 6 (dose: 25.0 mg/kg/injection, schedule: Q01DX005 (ip), vehicle: saline with Tween-80); 0 of 6 (dose: 50.0 mg/kg/injection, schedule: Q01DX005 (ip), vehicle: saline with Tween-80); 0 of 6 (dose: 100.0 mg/kg/injection, schedule: Q01DX005 (ip), vehicle: saline with Tween-80); 0 of 6 (dose: 200.0 mg/kg/injection, schedule: Q01DX005 (ip), vehicle: saline with Tween-80).

On to `FC(F)(F)/C([S-])=C(/[S-])C(F)(F)F.FC(F)(F)/C([S-])=C(/[S-])C(F)(F)F.FC(F)(F)/C([S-])=C(/[S-])C(F)(F)F.FC(F)(F)/C([S-])=C(/[S-])C(F)(F)F.[Co+3].[Co+3]`, for which the survivor count (dose: 75.0 mg/kg/injection, schedule: Q04DX003 (ip), vehicle: other) is reported as 6 of 6.

For the compound `FC(F)(F)c1nnc(-c2ccccc2)nn1`, the survivor count (dose: 400.0 mg/kg/injection, schedule: Q04DX002 (ip), vehicle: Klucel (hydroxypropylcellulose) (HPC)) is on record as 4 of 6.

Regarding `COc1cc(CC2c3cc(OC)c(OC)cc3CCN2C)c(Oc2cc3c(cc2OC)-c2c(O)c(OC)cc4c2C(C3)N(C)CC4)cc1OC` (stereo unspecified), the survivor count was 6 of 6 (dose: 50.0 mg/kg/injection, schedule: Q04DX003 (ip), vehicle: saline with Tween-80) and 6 of 6 under setting [1].

With `NNS(=O)(=O)c1cccc(S(=O)(=O)NN)c1`, the survivor count is on record as 5 of 6 (dose: 100.0 mg/kg/injection, schedule: Q01DX009 (ip), vehicle: other) and 4 of 6 (dose: 200.0 mg/kg/injection, schedule: Q01DX009 (ip), vehicle: other).

Turning to `CCCCCCCCCCCCCCCC[N+](C)(CCO)Cc1cnc[nH]1` (stereo unspecified), the T/C (dose: 6.25 mg/kg/injection, schedule: Q01DX009 (ip), vehicle: saline) was 139 % of control; the T/C (dose: 12.5 mg/kg/injection, schedule: Q01DX009 (ip), vehicle: saline) is 129 and 135 % of control. Further, the survivor count runs as follows: (dose: 25.0 mg/kg/injection, schedule: Q01DX009 (ip), vehicle: saline) 5 of 6 and 6 of 6; (dose: 50.0 mg/kg/injection, schedule: Q01DX009 (ip), vehicle: saline) 1 of 6 (2×); (dose: 100.0 mg/kg/injection, schedule: Q01DX009 (ip), vehicle: saline) 0 of 6; (dose: 200.0 mg/kg/injection, schedule: Q01DX009 (ip), vehicle: saline) 0 of 6.

With `O=C(O)CS(=O)NN(c1ccccc1)c1ccccc1` (stereo unspecified), where the note is “dose: 400.0 mg/kg/injection, schedule: Q04DX002 (ip), vehicle: saline with Tween-80”, the survivor count was 5 of 6.

For the compound `CC(=O)c1c(O)c(C)c(O)c2c1OC1=Cc3c(c(C)nn3C)C(=O)C12C` (stereo unspecified), the T/C is reported as 101, 102, 110, 125 % of control (dose: 12.5 mg/kg/injection, schedule: Q01DX009 (ip), vehicle: gum acacia); 94, 100, 112, 119 % of control (dose: 25.0 mg/kg/injection, schedule: Q01DX009 (ip), vehicle: gum acacia); 89, 94, 103, 108 % of control (dose: 100.0 mg/kg/injection, schedule: Q01DX009 (ip), vehicle: gum acacia); 86, 99, 107 % of control under setting [4]. Also, the survivor count under setting [4] is 6 of 6.

With `OCCc1nccnn1`, the survivor count (dose: 100.0 mg/kg/injection, schedule: Q04DX003 (ip), vehicle: saline) is 6 of 6.

Take `CSc1nc(Cl)cc(Sc2nc(N)nc3nc[nH]c23)n1`: the T/C (dose: 100.0 mg/kg/injection, schedule: Q01DX009 (ip), vehicle: Klucel (hydroxypropylcellulose) (HPC)) was 127 and 129 % of control. Moreover, the survivor count (dose: 200.0 mg/kg/injection, schedule: Q01DX009 (ip), vehicle: Klucel (hydroxypropylcellulose) (HPC)) was 6 of 6.

Turning to `Cc1cc2nc3[nH]c4ccccc4c3nc2cc1C`, the survivor count (dose: 400.0 mg/kg/injection, schedule: Q01DX009 (ip), vehicle: suspension in saline) is 5 of 6.

Take `C[C@@H]1CC[C@]2(C)CC[C@]3(C)C(=CC[C@@H]4[C@@]5(C)CC[C@@H](OC(=O)c6ccc(O)cc6)C(C)(C)[C@@H]5C[C@H](O)[C@]43C)[C@@H]2[C@H]1C(=O)O`: the T/C was 130 % of control (dose: 0.02 mg/kg/injection, schedule: Q01DX009 (ip), vehicle: saline with Tween-80); 130 % of control (dose: 0.05 mg/kg/injection, schedule: Q01DX009 (ip), vehicle: saline with Tween-80); 144 % of control (dose: 0.1 mg/kg/injection, schedule: Q01DX009 (ip), vehicle: saline with Tween-80); 127 % of control (dose: 100.0 micrograms/kg/injection, schedule: Q01DX009 (ip), vehicle: saline with Tween-80); 136 % of control (dose: 200.0 micrograms/kg/injection, schedule: Q01DX009 (ip), vehicle: saline with Tween-80). Moreover, the survivor count (dose: 0.5 mg/kg/injection, schedule: Q01DX009 (ip), vehicle: Klucel (hydroxypropylcellulose) (HPC)) is recorded as 6 of 6; the survivor count (dose: 1.0 mg/kg/injection, schedule: Q01DX009 (ip), vehicle: Klucel (hydroxypropylcellulose) (HPC)) is 5 of 6; the survivor count (dose: 2.0 mg/kg/injection, schedule: Q01DX009 (ip), vehicle: Klucel (hydroxypropylcellulose) (HPC)) was 2 of 6; the survivor count (dose: 4.0 mg/kg/injection, schedule: Q01DX009 (ip), vehicle: Klucel (hydroxypropylcellulose) (HPC)) was 0 of 6.
